Earlier results as cited in patent publication US20210386729A1, “METHODS FOR TREATING LIVER DISORDERS USING FXR AGONISTS” (NOVARTIS AG, priority 2016, published 2021).
At least one structure is not confirmed: it was looked up by name or label, or the drawing left a doubt.

Details: PBC and NASH subjects; cited from earlier work

SMILES: CC[C@H]1[C@@H](O)[C@@H]2[C@H](CC[C@]3(C)[C@@H]([C@H](C)CCC(=O)O)CC[C@@H]23)[C@@]2(C)CC[C@@H](O)C[C@@H]12 [OCA, 6α-ethyl-chenodeoxycholic acid]
- clinical efficacy: showed efficacy
